Taken from: PubChem BioAssay AID720505 (Drosophila RNAi Screening Center, 2013)
Aim: 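Genes needed for store-operated calcium entry in fly cells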 (primary screen). Cells: Drosophila S2R+ cells. Knock-down reagent: long dsRNA against Drosophila genes. Challenge: thapsigargin (2 µM) in calcium-free buffer to empty internal stores, then 2 mM calcium added back. Detection: 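Stores emptied by 2 µM thapsigargin without calcium, then 2 mM calcium re-added; fluo-4 fluorescence followed by FLIPR in 384-well plates, per-well averaged endpoint, raw; two screen passes, some wells retested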. Scale: calcium signal and retest calcium signal: higher = more calcium entry after store depletion. Active means: 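Knock-downs counted as hits when calcium entry dropped relative to STIM1 positive and Rho1 negative controls present on each plate; roughly 1500 genes called, with reductions of differing size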. Meaning of the calls: active = called as lowering calcium entry; inactive = not called.
The deposit covers about 20,000 reagents; below is an unselected part of those with a known target gene and a result. Over the whole deposit, about 2,100 (10%) got an active call. 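Raw plate signals without normalisation; calls rest on control-based scores that were not deposited; replicate 2 separates called from uncalled poorly.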 A number with no mark means an inactive call. Names joined by + are all predicted targets of the reagent. The record does not give: the amount of reagent, the time to read-out.

For RNaseX25 (Ribonuclease X25) [DRSC11259], what does the deposit list?
calcium signal, replicate 1: 86.9; calcium signal, replicate 2: 126

Which result is listed for CG17375 [DRSC02614]?
calcium signal, replicate 1: 146; calcium signal, replicate 2: 109

For Ice1 (Interacts with the C terminus of ELL 1) [DRSC04191], how do the results read?
calcium signal, replicate 1: 32.2 (active); calcium signal, replicate 2: 105

For cort (cortex) [DRSC02148], what was measured?
calcium signal, replicate 1: 90.6; calcium signal, replicate 2: 81.3

How did the screen score Sptr (Sepiapterin reductase) [DRSC18719]?
calcium signal, replicate 1: 118; calcium signal, replicate 2: 82.9

What is on record for Prp6 (pre-mRNA processing factor 6) [DRSC10724]?
calcium signal, replicate 1: 131; calcium signal, replicate 2: 120; retest calcium signal, replicate 1: 131; retest calcium signal, replicate 2: 94.3

For Prp6 (pre-mRNA processing factor 6) [DRSC21773], what was measured?
calcium signal, replicate 1: 146; calcium signal, replicate 2: 132

For Wnk (Wnk kinase) [DRSC11813], what does the deposit list?
calcium signal, replicate 1: 113; calcium signal, replicate 2: 193

Which result is listed for Spn43Aa (Serpin 43Aa) [DRSC06117]?
calcium signal, replicate 1: 172; calcium signal, replicate 2: 96.5

With CG1523 [DRSC15033], how do the results read?
calcium signal, replicate 1: 131; calcium signal, replicate 2: 178

What is on record for sona (sol narae) [DRSC04089]?
calcium signal, replicate 1: 110; calcium signal, replicate 2: 281

With sona (sol narae) [DRSC04574], what was measured?
calcium signal, replicate 1: 150; calcium signal, replicate 2: 232

With sona (sol narae) [DRSC04575], how do the results read?
calcium signal, replicate 1: 131; calcium signal, replicate 2: 205

With Ir94h (Ionotropic receptor 94h) [DRSC15232], what does the deposit list?
calcium signal, replicate 1: 243; calcium signal, replicate 2: 107

With CG43367 + asRNA:CR32252 [DRSC21715], how do the results read?
calcium signal, replicate 1: 147; calcium signal, replicate 2: 93.9

How did the screen score Pdk (Pyruvate dehydrogenase kinase) [DRSC07504]?
calcium signal, replicate 1: 148; calcium signal, replicate 2: 114

How did the screen score CG31816 [DRSC01547]?
calcium signal, replicate 1: 61.8 (active); calcium signal, replicate 2: 119

With Trf4-1 (Topoisomerase related function 4-1) [DRSC17775], how do the results read?
calcium signal, replicate 1: 219; calcium signal, replicate 2: 118

For didum (dilute class unconventional myosin) [DRSC07603], what does the deposit list?
calcium signal, replicate 1: 158; calcium signal, replicate 2: 114

Active calls, among the entries above:
Ice1 (Interacts with the C terminus of ELL 1) [DRSC04191] — calcium signal, replicate 1 = 32.2 (active); calcium signal, replicate 2 = 105
CG31816 [DRSC01547] — calcium signal, replicate 1 = 61.8 (active); calcium signal, replicate 2 = 119
